Results are given in words; binding and its absence hold for the method and conditions named. In cells and extracts the contact can be indirect. Some results given as binding are weak or reduced against the parent protein; the word gives no strength. Tags and fused reporters may be left off the sequences shown.
Biological target: T1, Enp1-C-HTP (S. cerevisiae) (UniProt P38333)
T1 sequence: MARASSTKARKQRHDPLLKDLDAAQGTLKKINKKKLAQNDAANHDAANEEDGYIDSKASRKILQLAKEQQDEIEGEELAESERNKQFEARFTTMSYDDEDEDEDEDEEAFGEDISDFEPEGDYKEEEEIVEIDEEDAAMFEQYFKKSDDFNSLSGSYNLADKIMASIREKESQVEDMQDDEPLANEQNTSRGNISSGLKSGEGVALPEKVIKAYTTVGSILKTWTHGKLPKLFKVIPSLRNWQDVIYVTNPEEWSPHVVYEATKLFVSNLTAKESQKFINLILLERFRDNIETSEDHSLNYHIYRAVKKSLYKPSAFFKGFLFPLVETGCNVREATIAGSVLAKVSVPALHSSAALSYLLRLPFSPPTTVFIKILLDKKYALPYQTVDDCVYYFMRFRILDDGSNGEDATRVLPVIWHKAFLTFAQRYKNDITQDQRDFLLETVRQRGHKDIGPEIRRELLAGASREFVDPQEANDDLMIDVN
Test: pull-down; extracts of cells expressing HA-Rok1 and Enp1-HTP incubated with IgG sepharose (one-step purification of Enp1-HTP pre-ribosomal complexes); eluate analysed by SDS-PAGE and Western blotting (anti-HA, anti-PAP, anti-GAPDH)

binding: binds
B1: HA-tagged Rok1 (enzyme, UniProt P45818 1-564)
chain: MDIFRVLTRGASVKKESGPKAKAADYSVINGNDENHKEDNNESQIVKELDFFRNKRIISKVEDDREKTTENDSPNKEEKSGNDDGLIKPVITNTVEASALRKSYKGNVSGIDIPLPIGSFEDLISRFSFDKRLLNNLIENGFTEPTPIQCECIPVALNNRDVLACGPTGSGKTLAFLIPLVQQIIDDKQTAGLKGLIISPTKELANQIFIECFKLSYKIFLEKKRPLQVALLSKSLGAKLKNKVVSDKKYDIIISTPLRLIDVVKNEALDLSKVKHLIFDEADKLFDKTFVEQSDDILSACREPSLRKAMFSATIPSNVEEIAQSIMMDPVRVIIGHKEAANTNIEQKLIFCGNEEGKLIAIRQLVQEGEFKPPIIIFLESITRAKALYHELMYDRINVDVIHAERTALQRDRIIERFKTGELWCLICTDVLARGIDFKGVNLVINYDVPGSSQAYVHRIGRTGRGGRSGKAITFYTKQDSVAIKPIINVMKQSGCEVSEWMDKMAKMTRKEKESIKNGKAHKERKQITTVPKMDKAKRRRQQEMIAASKRRKNEELSKKHFSK

— PMC4105744
